In patent publication US9861613B2, “GPR142 agonist compounds” (Eli Lilly and Company, priority 2014, dated 2018):
For at least one compound, name, drawing or mass did not settle the structure.

How the values were obtained:
[1] = test system: primary murine pancreatic islets of Langerhans; assay: Glucose-dependent insulin secretion (GDIS) assay; type: cell-based; conditions: mouse islets
GPR142 = target: T1, GPR142 (Mus musculus, UniProt Q7TQN9); assay: Intraperitoneal glucose tolerance test (IPGTT); type: in vivo
T1 construct: from tissue; host or cells: whole animal, male C57BL/6 mice
T1 sequence (Q7TQN9 1-365): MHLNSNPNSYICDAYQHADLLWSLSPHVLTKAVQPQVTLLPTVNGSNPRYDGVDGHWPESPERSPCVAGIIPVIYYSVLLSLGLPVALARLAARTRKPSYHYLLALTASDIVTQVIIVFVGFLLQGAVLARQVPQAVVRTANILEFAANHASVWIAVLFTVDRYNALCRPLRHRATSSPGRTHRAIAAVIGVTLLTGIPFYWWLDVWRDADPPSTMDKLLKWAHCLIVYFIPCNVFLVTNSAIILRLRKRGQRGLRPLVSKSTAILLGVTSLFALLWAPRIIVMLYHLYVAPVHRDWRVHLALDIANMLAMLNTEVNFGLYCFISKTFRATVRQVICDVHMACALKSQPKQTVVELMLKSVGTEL
Procedure: IPGTT assay is used to examine the ability of exemplified compounds to activate GPR142 in vivo resulting in anti-diabetic efficacy, i.e. reduction in plasma glucose levels. Male C57BL/6 mice (8-10 weeks of age) are fed normal rodent chow diet and water ad libitum. On the night before the study, animals are fasted overnight in clean cages. On the morning of the study, animals are dosed orally with vehicle or compound at the indicated doses 30 minutes prior to the glucose challenge (2 g/kg) by intraperitoneal injection. Blood glucose levels are determined from tail bleeds taken immediately prior to compound dosing (−30 min) and 0, 15, 30, and 60 min after glucose challenge using handheld glucometers. Plasma is isolated from tail bleeds taken at 7 minutes after glucose challenge and used to determine insulin levels by the Rat/Mouse Insulin Elisa kit (Millipore) or MA6000 Mouse/Rat Insulin Kit (MSD). The blood glucose profile from t=0 to t=60 min is used to calculate an area under the curve (AUC) for each treatment. Percent lowering in glucose AUC is calculated for each treatment group with respect to the AUC of vehicle group. Compounds with a reduction in glucose AUC (P<0.05) is considered positive in the assay.

## Cc1ncn(C)c1NC(=O)[C@@H]1CCC[C@H](N(C)C(=O)c2cccc(C(F)(F)F)c2)C1 (single isomer, unassigned; isomer 1) [Example 1, Cis-(chiral)-N-[3-[(3,5-Dimethylimidazol-4-yl)carbamoyl]cyclohexyl]-N-methyl-3-(trifluoromethyl)benzamide, isomer 1]
[1]; 1 μM
  GDIS significance (insulin secretion vs DMSO control): not significant
[1]; 10 μM, p<0.05
  GDIS significance (insulin secretion vs DMSO control): significant
[1]
  glucose dependent insulin secretion, dose dependence: exhibits glucose dependent insulin secretion in a dose dependent manner
GPR142; 30 mg/kg oral, normal C57BL/6 mice, AUC t=0 to 60 min
  Glucose AUC suppression at 30 mg/kg compared to vehicle control (%): 43%
GPR142; 30 mg/kg oral, normal C57BL/6 mice, plasma at 7 minutes after glucose challenge
  Increase of glucose-stimulated insulin release at 30 mg/kg compared to vehicle control (%): 200%
GPR142; lean C57BL/6 mice, oral dosing 30 min before glucose challenge
  ED80 in IPGTT: 9.1 mpk
GPR142; oral dosing, compared to the control, lean C57BL/6 mice
  glucose dependent insulin secretion and glucose lowering in IPGTT: glucose dependent insulin secretion and glucose lowering in a dose dependent manner
